Data as given in PubChem BioAssay AID1159584 (Peter MacCallum Cancer Centre, 2016).
The whole screen tested about 18,000 reagents; this is an unselected part. Further read-outs or replicates are left out here. Not stated in the record: the amount of reagent, the time to read-out.

- Aim: 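Knock-downs that harm CDH1-null cells more than parental MCF10A cells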 (primary screen)
- System: human MCF10A breast epithelial cells, parental and CDH1-null
- Knock-down reagent: siRNA against human genes
- Measurement: 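ATP luminescence (CellTiter-Glo) viability per line relative to mean mock wells over all plates, and the ratio of CDH1-null to parental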
- Direction: CDH1-null / parental viability ratio: higher = CDH1-null cells survive relatively better than parental

gene knocked down | PubChem SID | CDH1-null / parental viability ratio
UNC5C | SID134315123 | 1.04
OR13C4 | SID152152005 | 0.71
CIAO3 | SID134318280 | 0.97
ARL14EP | SID134320005 | 0.97
FAM170A | SID152151431 | 1.22
RALB | SID134313277 | 0.65
RELL1 | SID135625703 | 1.05
TPRA1 | SID152153324 | 0.71
NPM2 | SID134323035 | 1.21
EFR3A | SID152149454 | 0.91
CDK15 | SID56478852 | 0.84
MAP6 | SID134326626 | 0.84
AKR1C2 | SID134313372 | 0.91
PCDHGA9 | SID134317501 | 1.26
RALGAPB | SID152149634 | 1.22
PLEKHA8P1 | SID134324568 | 0.86
MYRFL | SID135623609 | 1.03
SEC11B | SID152147948 | 0.96
UNC13A | SID152150521 | 1.12
NDUFB6 | SID134321160 | 0.93
PAK2 | SID135620709 | 0.85
TRAM1L1 | SID152147686 | 1.25
SLC16A11 | SID152150160 | 1.17
CDH13 | SID152149731 | 1.35
TCERG1L | SID152154750 | 1.22
EMSY | SID152148170 | 1
PCOLCE | SID152156755 | 0.99
PRR35 | SID134320062 | 0.97

Already shown: an excerpt of the list.
gene knocked down | PubChem SID | CDH1-null / parental viability ratio
MYRFL | SID135623609 | 1.03
SEC11B | SID152147948 | 0.96
